Data as given in the supplement of paper PMC12067093, “Discovery and optimisation of a covalent ligand for TRIM25 and its application to targeted protein ubiquitination” (Chemical Science, 2025).
This is one part of the list.

The chains behind the UniProt entries cited, without tags or fusion partners. Where a name states a change or a piece, a line headed by the entry shows the natural chain unless it says otherwise.
UniProt Q3KQV9: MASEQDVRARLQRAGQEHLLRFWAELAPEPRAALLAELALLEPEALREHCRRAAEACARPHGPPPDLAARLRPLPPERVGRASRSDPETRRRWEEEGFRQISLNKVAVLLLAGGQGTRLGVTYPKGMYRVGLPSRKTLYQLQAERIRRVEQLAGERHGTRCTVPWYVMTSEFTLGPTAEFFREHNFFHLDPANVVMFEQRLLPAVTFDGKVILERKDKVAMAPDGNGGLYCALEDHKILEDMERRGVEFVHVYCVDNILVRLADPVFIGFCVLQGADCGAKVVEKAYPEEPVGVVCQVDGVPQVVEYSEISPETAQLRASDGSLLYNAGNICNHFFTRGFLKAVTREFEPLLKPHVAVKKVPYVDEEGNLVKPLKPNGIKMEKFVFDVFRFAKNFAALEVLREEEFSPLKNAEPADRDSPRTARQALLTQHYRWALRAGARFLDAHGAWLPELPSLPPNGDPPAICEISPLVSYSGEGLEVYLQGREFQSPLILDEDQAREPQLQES
UniProt Q8IWV8: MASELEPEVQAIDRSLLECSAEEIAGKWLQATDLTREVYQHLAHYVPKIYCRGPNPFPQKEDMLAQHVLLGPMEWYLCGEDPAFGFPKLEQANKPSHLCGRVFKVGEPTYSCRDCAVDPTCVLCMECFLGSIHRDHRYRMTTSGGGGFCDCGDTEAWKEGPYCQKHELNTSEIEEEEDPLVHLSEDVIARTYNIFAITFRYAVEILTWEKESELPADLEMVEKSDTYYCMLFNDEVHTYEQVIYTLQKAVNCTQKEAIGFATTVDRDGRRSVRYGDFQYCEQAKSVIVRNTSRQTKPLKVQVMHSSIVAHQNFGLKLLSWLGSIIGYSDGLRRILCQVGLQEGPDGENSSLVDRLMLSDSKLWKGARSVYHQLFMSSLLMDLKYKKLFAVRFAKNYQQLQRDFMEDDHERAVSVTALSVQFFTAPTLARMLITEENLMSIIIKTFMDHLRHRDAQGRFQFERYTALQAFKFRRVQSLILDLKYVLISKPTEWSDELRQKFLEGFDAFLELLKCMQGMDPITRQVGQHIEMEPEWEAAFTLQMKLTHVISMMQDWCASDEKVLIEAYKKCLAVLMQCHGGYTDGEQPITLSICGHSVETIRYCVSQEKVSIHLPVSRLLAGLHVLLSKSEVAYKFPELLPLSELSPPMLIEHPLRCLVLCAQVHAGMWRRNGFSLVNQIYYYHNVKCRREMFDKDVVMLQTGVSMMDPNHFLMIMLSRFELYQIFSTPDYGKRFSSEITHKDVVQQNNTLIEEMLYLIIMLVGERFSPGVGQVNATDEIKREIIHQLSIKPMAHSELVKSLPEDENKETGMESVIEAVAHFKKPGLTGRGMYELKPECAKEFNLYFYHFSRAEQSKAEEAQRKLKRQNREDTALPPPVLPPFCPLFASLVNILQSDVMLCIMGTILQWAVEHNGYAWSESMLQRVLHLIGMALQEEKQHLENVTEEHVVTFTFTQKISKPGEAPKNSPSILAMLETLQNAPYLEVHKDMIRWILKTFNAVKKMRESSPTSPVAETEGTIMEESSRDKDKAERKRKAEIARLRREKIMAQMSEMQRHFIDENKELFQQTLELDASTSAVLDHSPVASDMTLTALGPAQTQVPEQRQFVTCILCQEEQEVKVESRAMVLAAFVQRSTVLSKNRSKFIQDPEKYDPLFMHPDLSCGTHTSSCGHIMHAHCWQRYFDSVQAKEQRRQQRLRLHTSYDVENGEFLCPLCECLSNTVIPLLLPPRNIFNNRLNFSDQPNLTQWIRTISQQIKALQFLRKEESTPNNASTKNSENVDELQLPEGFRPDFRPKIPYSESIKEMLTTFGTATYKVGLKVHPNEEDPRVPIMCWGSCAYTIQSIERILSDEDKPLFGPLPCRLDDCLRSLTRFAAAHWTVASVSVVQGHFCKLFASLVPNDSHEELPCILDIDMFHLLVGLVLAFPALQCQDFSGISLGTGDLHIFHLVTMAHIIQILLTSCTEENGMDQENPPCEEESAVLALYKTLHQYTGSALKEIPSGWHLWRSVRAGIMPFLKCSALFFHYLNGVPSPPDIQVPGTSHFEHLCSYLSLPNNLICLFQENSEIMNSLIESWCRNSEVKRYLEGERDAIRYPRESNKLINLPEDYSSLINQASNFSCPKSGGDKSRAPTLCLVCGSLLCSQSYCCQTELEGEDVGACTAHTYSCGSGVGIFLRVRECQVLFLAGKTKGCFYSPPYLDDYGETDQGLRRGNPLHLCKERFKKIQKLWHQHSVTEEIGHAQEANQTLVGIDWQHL
UniProt Q14139: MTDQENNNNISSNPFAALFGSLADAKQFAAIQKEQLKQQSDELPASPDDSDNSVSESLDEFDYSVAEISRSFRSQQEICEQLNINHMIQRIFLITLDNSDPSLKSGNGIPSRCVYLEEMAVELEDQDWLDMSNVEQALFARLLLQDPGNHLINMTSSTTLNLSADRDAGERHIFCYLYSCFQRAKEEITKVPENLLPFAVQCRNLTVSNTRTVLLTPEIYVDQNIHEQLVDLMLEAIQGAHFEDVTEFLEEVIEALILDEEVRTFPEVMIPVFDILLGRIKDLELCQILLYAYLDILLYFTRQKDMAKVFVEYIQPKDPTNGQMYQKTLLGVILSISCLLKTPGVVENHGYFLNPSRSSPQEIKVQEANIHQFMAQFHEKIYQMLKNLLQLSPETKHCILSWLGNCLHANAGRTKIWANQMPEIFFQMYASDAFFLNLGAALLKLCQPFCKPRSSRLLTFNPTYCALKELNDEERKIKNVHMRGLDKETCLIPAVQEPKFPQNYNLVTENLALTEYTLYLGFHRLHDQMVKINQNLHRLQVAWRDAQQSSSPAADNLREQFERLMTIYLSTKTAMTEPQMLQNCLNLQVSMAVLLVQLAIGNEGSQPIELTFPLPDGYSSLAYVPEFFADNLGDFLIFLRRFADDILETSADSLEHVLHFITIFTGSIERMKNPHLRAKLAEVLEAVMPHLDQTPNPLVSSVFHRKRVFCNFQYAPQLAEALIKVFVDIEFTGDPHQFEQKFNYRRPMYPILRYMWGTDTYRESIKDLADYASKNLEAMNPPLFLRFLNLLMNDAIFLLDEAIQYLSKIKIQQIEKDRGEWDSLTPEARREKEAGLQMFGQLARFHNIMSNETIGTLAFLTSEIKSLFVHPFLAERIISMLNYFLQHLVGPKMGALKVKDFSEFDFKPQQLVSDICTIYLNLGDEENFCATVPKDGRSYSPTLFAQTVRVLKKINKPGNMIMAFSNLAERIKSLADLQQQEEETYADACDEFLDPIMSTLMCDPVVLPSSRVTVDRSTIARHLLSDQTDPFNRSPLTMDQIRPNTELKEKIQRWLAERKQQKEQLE
UniProt Q8IWV7: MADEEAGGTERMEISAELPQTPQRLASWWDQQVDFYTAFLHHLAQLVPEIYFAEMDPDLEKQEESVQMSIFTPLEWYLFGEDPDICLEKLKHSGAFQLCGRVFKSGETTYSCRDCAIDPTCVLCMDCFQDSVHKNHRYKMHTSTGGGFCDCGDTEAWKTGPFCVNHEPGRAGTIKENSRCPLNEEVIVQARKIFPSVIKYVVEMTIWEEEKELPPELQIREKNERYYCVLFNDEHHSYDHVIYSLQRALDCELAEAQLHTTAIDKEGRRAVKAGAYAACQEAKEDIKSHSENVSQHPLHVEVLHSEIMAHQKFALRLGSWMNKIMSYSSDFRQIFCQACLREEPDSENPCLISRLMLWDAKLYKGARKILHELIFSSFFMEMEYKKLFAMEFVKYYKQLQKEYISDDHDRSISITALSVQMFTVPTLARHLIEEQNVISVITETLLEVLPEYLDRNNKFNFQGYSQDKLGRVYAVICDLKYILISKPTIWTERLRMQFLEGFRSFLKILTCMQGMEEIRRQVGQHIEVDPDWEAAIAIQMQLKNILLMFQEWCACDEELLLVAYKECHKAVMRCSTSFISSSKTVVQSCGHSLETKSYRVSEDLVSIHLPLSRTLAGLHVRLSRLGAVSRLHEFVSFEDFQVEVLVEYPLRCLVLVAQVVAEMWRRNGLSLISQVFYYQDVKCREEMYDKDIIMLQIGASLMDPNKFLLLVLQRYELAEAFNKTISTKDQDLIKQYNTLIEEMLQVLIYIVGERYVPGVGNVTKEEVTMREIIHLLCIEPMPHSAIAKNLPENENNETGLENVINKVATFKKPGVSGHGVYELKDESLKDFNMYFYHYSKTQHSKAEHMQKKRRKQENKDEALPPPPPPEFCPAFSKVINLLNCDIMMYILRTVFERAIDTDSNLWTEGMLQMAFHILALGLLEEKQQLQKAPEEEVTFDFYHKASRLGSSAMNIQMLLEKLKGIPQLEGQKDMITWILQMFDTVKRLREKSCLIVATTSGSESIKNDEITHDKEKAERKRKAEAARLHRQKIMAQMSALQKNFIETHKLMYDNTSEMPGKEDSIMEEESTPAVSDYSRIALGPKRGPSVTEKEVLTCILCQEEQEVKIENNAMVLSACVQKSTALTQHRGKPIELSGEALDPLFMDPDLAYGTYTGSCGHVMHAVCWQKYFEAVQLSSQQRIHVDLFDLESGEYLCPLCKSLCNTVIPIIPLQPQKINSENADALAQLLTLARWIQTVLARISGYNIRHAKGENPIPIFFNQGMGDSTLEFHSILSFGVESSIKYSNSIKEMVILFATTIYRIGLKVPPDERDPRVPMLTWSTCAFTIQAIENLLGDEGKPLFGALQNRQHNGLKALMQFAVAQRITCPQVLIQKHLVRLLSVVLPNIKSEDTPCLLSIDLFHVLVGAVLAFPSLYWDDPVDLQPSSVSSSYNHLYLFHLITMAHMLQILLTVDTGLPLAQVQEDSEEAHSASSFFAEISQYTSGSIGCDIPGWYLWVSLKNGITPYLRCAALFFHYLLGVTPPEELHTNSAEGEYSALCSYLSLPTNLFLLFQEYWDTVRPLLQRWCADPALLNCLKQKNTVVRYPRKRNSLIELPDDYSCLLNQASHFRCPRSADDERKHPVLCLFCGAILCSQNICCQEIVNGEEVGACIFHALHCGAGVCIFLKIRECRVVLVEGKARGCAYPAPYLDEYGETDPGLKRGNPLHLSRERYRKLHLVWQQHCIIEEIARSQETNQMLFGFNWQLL
UniProt Q2T9J0: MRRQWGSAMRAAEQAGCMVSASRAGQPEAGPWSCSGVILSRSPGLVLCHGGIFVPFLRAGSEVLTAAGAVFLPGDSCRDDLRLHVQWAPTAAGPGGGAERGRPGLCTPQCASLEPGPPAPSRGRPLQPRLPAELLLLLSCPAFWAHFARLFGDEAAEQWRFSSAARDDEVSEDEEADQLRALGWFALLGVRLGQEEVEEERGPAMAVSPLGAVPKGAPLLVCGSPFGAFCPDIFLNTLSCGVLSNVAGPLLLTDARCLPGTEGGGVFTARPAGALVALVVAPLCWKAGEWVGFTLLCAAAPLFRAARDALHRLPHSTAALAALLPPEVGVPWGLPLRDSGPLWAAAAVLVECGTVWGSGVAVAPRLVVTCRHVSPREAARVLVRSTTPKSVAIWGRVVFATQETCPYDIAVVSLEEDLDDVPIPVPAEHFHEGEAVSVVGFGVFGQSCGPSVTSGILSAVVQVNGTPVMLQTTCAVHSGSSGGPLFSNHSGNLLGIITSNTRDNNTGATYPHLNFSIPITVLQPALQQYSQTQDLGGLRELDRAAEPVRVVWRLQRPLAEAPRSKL
UniProt Q9NPD8: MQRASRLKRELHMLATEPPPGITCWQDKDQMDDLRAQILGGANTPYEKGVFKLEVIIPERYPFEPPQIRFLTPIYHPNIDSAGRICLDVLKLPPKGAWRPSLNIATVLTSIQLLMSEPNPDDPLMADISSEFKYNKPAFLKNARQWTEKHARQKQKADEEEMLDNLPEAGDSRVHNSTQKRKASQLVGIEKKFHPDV

Compound: CC1Cc2ccccc2N1C(=O)C1CCCN(C1)C(=O)CCl (mixture of isomers) [TRIM25 ligand 11 (diastereomer mixture)]
Test: probe-labelled cysteine peptide fold change vs DMSO (competition) (log2 fold change); higher = less target engagement (more negative = stronger competition)
Settings: THP-1, incubation time: 4 h
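Also: competitive chemoproteomic profiling in live THP-1 cells with an iodoacetamide desthiobiotin (IA-DTB) probe, comparing probe-labelled peptide intensities in compound-treated cells against DMSO-treated controls.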

TXNIP_Q9H3M7_49_ILACGVAK (UniProt Q9H3M7)
probe-labelled cysteine peptide fold change (10 µM): 0.365
probe-labelled cysteine peptide fold change (50 µM): 0.565

UAP1L1_Q3KQV9_50_AALLAELALLEPEALREHCR (UniProt Q3KQV9)
probe-labelled cysteine peptide fold change (10 µM): 0.0804
probe-labelled cysteine peptide fold change (50 µM): 0.0782

UBA6_A0AVT1_721_ALQLLHCFPLDIR
probe-labelled cysteine peptide fold change (10 µM): -0.121
probe-labelled cysteine peptide fold change (50 µM): 0.0812

UBE2G2_P60604_75_FTCEMFHPNIYPDGR (UniProt P60604)
probe-labelled cysteine peptide fold change (10 µM): 0.0491
probe-labelled cysteine peptide fold change (50 µM): -0.0468

UBR2_Q8IWV8_99_LEQANKPSHLCGR (UniProt Q8IWV8)
probe-labelled cysteine peptide fold change (10 µM): -0.0532
probe-labelled cysteine peptide fold change (50 µM): -0.102

UBE4A_Q14139_175_HIFCYLYSCFQR (UniProt Q14139)
probe-labelled cysteine peptide fold change (10 µM): 0.141
probe-labelled cysteine peptide fold change (50 µM): 0.127

UAP1L1_Q3KQV9_271_LADPVFIGFCVLQGADCGAK (UniProt Q3KQV9)
probe-labelled cysteine peptide fold change (10 µM): -0.0621
probe-labelled cysteine peptide fold change (50 µM): -0.144

UBA6_A0AVT1_174_KINDFCR
probe-labelled cysteine peptide fold change (10 µM): -0.0527
probe-labelled cysteine peptide fold change (50 µM): 0.0385

TXNIP_Q9H3M7_36_VIVEVCEVTR (UniProt Q9H3M7)
probe-labelled cysteine peptide fold change (10 µM): 0.136
probe-labelled cysteine peptide fold change (50 µM): 0.375

UBR4_Q5T4S7_3864_ALSVLGCGHTSSTK (UniProt Q5T4S7)
probe-labelled cysteine peptide fold change (10 µM): 0.218
probe-labelled cysteine peptide fold change (50 µM): -0.151

UBR4_Q5T4S7_4890_KQQGYSTVSHFNIVHYDCHLAAVR (UniProt Q5T4S7)
probe-labelled cysteine peptide fold change (10 µM): -0.0918
probe-labelled cysteine peptide fold change (50 µM): -0.0996

UBA3_Q8TBC4_82_VLVIGAGGLGCELLK (UniProt Q8TBC4)
probe-labelled cysteine peptide fold change (10 µM): -0.221
probe-labelled cysteine peptide fold change (50 µM): -0.235

UBAP2_Q5T6F2_71+78_NQDECIVALHDCNGDVNK (UniProt Q5T6F2)
probe-labelled cysteine peptide fold change (10 µM): -0.0411
probe-labelled cysteine peptide fold change (50 µM): 0.0837

UBA1_P22314_748_CPHPLTFDVNNPLHLDYVMAAANLFAQTYGLTGSQDR (UniProt P22314)
probe-labelled cysteine peptide fold change (10 µM): 0.0693
probe-labelled cysteine peptide fold change (50 µM): -0.00354

UBR1_Q8IWV7_1369_ITCPQVLIQK (UniProt Q8IWV7)
probe-labelled cysteine peptide fold change (10 µM): -5.95e-05
probe-labelled cysteine peptide fold change (50 µM): -0.0534

UAP1L1_Q3KQV9_254_GVEFVHVYCVDNILVR (UniProt Q3KQV9)
probe-labelled cysteine peptide fold change (10 µM): -0.0722
probe-labelled cysteine peptide fold change (50 µM): 0.0567

UBA2_Q9UBT2_161_GVTECYECHPKPTQR (UniProt Q9UBT2)
probe-labelled cysteine peptide fold change (10 µM): 0.0622
probe-labelled cysteine peptide fold change (50 µM): -0.0622

UBR4_Q5T4S7_1962_LASAPVPFTVLSLTGNPCK (UniProt Q5T4S7)
probe-labelled cysteine peptide fold change (10 µM): -0.0315
probe-labelled cysteine peptide fold change (50 µM): 0.0173

TYSND1_Q2T9J0_17_AAEQAGCMVSASR (UniProt Q2T9J0)
probe-labelled cysteine peptide fold change (10 µM): 0.116
probe-labelled cysteine peptide fold change (50 µM): 0.0273

UBAC1_Q9BSL1_19_LHICASDGAEWLEEATEDTSVEK (UniProt Q9BSL1)
probe-labelled cysteine peptide fold change (10 µM): -0.201
probe-labelled cysteine peptide fold change (50 µM): -0.213

UBA7_P41226_68_NLVLMGVGSLTLHDPHPTCWSDLAAQFLLSEQDLER (UniProt P41226)
probe-labelled cysteine peptide fold change (10 µM): 0.093
probe-labelled cysteine peptide fold change (50 µM): 0.0364

UBR4_Q5T4S7_4916_CNGLLPVWGPHVPESAFATCLAR (UniProt Q5T4S7)
probe-labelled cysteine peptide fold change (10 µM): 0.236
probe-labelled cysteine peptide fold change (50 µM): 0.0857

UBE4A_Q14139_79_SQQEICEQLNINHMIQR (UniProt Q14139)
probe-labelled cysteine peptide fold change (10 µM): -0.0818
probe-labelled cysteine peptide fold change (50 µM): -0.101

TXNRD2_Q9NNW7_279_GCAPSR (UniProt Q9NNW7)
probe-labelled cysteine peptide fold change (10 µM): 0.829
probe-labelled cysteine peptide fold change (50 µM): 0.386

TXNL1_O43396_135+149_AGCECLNESDEHGFDNCLR (UniProt O43396)
probe-labelled cysteine peptide fold change (10 µM): 0.0914
probe-labelled cysteine peptide fold change (50 µM): -0.234

TYSND1_Q2T9J0_48_SPGLVLCHGGIFVPFLR (UniProt Q2T9J0)
probe-labelled cysteine peptide fold change (10 µM): -0.0295
probe-labelled cysteine peptide fold change (50 µM): 0.022

UBR4_Q5T4S7_4838+4841_QMEELIEEPGLTCCICR (UniProt Q5T4S7)
probe-labelled cysteine peptide fold change (10 µM): 0.0403
probe-labelled cysteine peptide fold change (50 µM): 0.214

UBE3A_Q05086_843_NGPDTERLPTSHTCFNVLLLPEYSSK (UniProt Q05086)
probe-labelled cysteine peptide fold change (10 µM): 0.104
probe-labelled cysteine peptide fold change (50 µM): 0.128

UBAP1_Q9NZ09_452_GFDPLLVEEALEMHQCSEEK (UniProt Q9NZ09)
probe-labelled cysteine peptide fold change (10 µM): -0.0976
probe-labelled cysteine peptide fold change (50 µM): -0.166

UBAP2L_Q14157_68_NQDECVIALHDCNGDVNR (UniProt Q14157)
probe-labelled cysteine peptide fold change (10 µM): 0.146
probe-labelled cysteine peptide fold change (50 µM): 0.0638

UBASH3B_Q8TF42_240_LGCDWVATIFSR (UniProt Q8TF42)
probe-labelled cysteine peptide fold change (10 µM): 0.262
probe-labelled cysteine peptide fold change (50 µM): 0.351

UAP1L1_Q3KQV9_231_VAMAPDGNGGLYCALEDHK (UniProt Q3KQV9)
probe-labelled cysteine peptide fold change (10 µM): -0.00674
probe-labelled cysteine peptide fold change (50 µM): -0.0205

UBR1_Q8IWV7_1197+1200_IHVDLFDLESGEYLCPLCK (UniProt Q8IWV7)
probe-labelled cysteine peptide fold change (10 µM): -0.0282
probe-labelled cysteine peptide fold change (50 µM): -0.219

UBR4_Q5T4S7_1970_EDYLAVCGLK (UniProt Q5T4S7)
probe-labelled cysteine peptide fold change (10 µM): 0.0869
probe-labelled cysteine peptide fold change (50 µM): 0.0514

UBE2T_Q9NPD8_24_ELHMLATEPPPGITCWQDKDQMDDLR (UniProt Q9NPD8)
probe-labelled cysteine peptide fold change (10 µM): -0.0769
probe-labelled cysteine peptide fold change (50 µM): -0.334

UBE2T_Q9NPD8_24_ELHMLATEPPPGITCWQDK (UniProt Q9NPD8)
probe-labelled cysteine peptide fold change (10 µM): -0.106
probe-labelled cysteine peptide fold change (50 µM): -0.245

UBR4_Q5T4S7_4146_QAACTIVEALATIPSRK (UniProt Q5T4S7)
probe-labelled cysteine peptide fold change (10 µM): -0.0666
probe-labelled cysteine peptide fold change (50 µM): 0.0515

UBA1_P22314_234_DNPGVVTCLDEAR (UniProt P22314)
probe-labelled cysteine peptide fold change (10 µM): 0.0251
probe-labelled cysteine peptide fold change (50 µM): -0.108

UBR2_Q8IWV8_1332_VHPNEEDPRVPIMCWGSCAYTIQSIER (UniProt Q8IWV8)
probe-labelled cysteine peptide fold change (10 µM): -0.326
probe-labelled cysteine peptide fold change (50 µM): -0.616

UBA6_A0AVT1_231_EIFISNITQANPGIVTCLENHPHKLETGQFLTFR
probe-labelled cysteine peptide fold change (10 µM): 0.0137
probe-labelled cysteine peptide fold change (50 µM): -0.118

UBE2S_Q16763_95_IFHPNVGANGEICVNVLK (UniProt Q16763)
probe-labelled cysteine peptide fold change (10 µM): -0.0198
probe-labelled cysteine peptide fold change (50 µM): 0.0512

UBE2K_P61086_170_KIENLCAMGFDR (UniProt P61086)
probe-labelled cysteine peptide fold change (10 µM): -0.0455
probe-labelled cysteine peptide fold change (50 µM): 0.0315

UBA7_P41226_829_CQNYGIPPVNR (UniProt P41226)
probe-labelled cysteine peptide fold change (10 µM): 0.043
probe-labelled cysteine peptide fold change (50 µM): -0.0864

UBASH3B_Q8TF42_468_LVGEALLESNTIIDHVYCSPSLR (UniProt Q8TF42)
probe-labelled cysteine peptide fold change (10 µM): 0.112
probe-labelled cysteine peptide fold change (50 µM): -0.129

UBR2_Q8IWV8_127_DCAVDPTCVLCMECFLGSIHR (UniProt Q8IWV8)
probe-labelled cysteine peptide fold change (10 µM): 0.113
probe-labelled cysteine peptide fold change (50 µM): -0.112
